Laboratory results reported in publication PMC12316622 (EJNMMI Research, 2025).
Counter-ions that a name gives are not always drawn.

System: PC-3 cells
Assay: IC50 determination, SRB cell density assay, PC-3
Format: cell-based
Conditions: Homo sapiens
Summary of the method: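 Cells were seeded in 96-well plates (PC-3 at 3 × 10³, T47D at 5 × 10³) and left overnight. They were exposed 72 h at 37 °C to increasing test compound concentrations with DMSO vehicle, washed, then regrown 48 h in fresh medium. Readout was by SRB: TCA fixation overnight, 0.5% SRB for 20 min, acetic acid washes, dye dissolved in 10 mM Tris, OD at 560 nm. Density was taken relative to untreated cells (100%). Runs were in triplicate, and IC50 came from a four-parameter nonlinear fit.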

COc1cccc2c1C(=O)c1c(O)c3c(c(O)c1C2=O)C[C@@](O)(C(=O)CO)C[C@@H]3O[C@H]1C[C@H](N)[C@H](O)[C@H](C)O1 [DXR, doxorubicin hydrochloride]
IC50: 22.7 ± 4.17 nM
